Source: the supplement of paper PMC10849652
This is one part of the list.

Protein sequences, listed by entry. Tags and fused reporters are not part of them. Lines headed by an entry give the natural chain unless they say otherwise; changes in a name come on top.
UniProt Q9HD15: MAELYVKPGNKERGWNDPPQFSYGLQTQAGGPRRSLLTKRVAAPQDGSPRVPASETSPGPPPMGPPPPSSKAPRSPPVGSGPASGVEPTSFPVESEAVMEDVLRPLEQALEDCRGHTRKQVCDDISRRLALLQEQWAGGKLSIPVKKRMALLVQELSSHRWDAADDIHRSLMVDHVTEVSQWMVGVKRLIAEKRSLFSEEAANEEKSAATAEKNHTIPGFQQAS
UniProt Q13586, whole entry, looked up: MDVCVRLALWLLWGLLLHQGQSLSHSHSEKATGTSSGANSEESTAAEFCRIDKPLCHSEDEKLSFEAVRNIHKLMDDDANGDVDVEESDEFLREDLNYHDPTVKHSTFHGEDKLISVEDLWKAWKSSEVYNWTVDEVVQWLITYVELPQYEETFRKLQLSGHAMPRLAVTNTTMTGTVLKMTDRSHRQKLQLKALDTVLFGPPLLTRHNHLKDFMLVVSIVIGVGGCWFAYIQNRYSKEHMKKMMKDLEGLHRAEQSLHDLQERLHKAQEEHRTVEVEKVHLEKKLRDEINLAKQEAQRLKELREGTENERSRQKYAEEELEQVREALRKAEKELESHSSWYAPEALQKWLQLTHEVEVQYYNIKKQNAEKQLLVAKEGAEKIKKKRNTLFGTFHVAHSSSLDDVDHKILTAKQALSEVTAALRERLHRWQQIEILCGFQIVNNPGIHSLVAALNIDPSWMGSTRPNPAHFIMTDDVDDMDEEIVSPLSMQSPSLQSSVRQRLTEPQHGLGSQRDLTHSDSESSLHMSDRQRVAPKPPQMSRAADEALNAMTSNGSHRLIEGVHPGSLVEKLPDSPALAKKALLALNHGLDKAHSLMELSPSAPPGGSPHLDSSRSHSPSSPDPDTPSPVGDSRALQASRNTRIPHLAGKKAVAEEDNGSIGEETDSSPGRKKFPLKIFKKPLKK
UniProt P84103: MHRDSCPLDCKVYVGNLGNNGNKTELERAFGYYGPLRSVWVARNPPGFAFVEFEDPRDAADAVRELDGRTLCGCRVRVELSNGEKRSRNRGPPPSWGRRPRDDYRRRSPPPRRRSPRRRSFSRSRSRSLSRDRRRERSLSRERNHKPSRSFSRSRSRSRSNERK
UniProt Q16842: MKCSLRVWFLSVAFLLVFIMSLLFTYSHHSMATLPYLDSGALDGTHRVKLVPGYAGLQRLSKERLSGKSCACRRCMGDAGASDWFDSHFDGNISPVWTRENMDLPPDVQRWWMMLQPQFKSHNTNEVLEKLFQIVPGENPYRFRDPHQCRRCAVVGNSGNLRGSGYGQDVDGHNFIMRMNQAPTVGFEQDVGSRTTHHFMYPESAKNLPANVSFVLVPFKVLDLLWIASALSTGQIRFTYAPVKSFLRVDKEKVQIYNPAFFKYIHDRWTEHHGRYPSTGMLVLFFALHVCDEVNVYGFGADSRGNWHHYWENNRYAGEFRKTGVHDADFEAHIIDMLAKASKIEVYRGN
UniProt Q658P3: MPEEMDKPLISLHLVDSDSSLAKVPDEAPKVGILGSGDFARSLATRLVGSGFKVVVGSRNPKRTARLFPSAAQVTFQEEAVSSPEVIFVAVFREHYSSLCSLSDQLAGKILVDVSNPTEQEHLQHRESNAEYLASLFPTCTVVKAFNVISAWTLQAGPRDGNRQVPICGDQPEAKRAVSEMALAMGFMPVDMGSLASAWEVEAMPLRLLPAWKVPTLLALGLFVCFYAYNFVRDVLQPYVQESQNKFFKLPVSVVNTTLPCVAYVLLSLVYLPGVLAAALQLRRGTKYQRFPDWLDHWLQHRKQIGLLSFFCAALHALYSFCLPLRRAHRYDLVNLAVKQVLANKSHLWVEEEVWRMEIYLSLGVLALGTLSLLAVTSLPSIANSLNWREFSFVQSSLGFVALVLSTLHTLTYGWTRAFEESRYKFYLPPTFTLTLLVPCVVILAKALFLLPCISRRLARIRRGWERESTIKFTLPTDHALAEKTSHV
UniProt Q8WW59: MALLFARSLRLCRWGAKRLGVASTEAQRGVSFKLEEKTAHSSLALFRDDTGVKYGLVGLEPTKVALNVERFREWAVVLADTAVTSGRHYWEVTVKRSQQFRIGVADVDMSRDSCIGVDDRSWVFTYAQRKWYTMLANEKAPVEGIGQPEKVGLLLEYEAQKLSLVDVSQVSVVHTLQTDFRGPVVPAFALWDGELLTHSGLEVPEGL
UniProt Q8N0X7: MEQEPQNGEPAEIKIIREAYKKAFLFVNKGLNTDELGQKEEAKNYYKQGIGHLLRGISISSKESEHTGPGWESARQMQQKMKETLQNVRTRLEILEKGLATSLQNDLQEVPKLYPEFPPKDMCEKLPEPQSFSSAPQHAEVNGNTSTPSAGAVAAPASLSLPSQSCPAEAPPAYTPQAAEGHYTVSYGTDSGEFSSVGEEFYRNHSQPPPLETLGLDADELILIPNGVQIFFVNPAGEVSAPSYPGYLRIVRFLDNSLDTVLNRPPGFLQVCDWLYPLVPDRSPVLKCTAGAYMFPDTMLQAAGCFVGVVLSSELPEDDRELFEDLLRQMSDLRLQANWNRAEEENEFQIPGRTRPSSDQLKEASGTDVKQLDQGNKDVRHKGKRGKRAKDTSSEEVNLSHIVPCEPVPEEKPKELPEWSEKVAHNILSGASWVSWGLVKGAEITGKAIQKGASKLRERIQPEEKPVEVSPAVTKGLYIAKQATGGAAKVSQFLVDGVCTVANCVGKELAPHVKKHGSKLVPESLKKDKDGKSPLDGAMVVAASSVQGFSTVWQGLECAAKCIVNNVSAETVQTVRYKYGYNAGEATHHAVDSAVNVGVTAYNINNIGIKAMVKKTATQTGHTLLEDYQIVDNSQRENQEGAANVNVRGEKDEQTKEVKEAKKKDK
UniProt Q9Y6E0: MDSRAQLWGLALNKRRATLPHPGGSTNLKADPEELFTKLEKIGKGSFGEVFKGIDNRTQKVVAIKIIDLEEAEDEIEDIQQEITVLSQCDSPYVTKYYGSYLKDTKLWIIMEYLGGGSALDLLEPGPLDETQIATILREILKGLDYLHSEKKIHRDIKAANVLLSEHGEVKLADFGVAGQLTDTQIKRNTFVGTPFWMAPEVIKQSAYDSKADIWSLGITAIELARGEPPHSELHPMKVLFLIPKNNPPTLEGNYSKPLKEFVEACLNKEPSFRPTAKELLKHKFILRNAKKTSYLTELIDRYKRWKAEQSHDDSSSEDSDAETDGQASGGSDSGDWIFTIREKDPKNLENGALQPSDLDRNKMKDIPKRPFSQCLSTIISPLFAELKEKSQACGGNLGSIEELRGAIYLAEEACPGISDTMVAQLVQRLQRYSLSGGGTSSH
UniProt Q69YQ0: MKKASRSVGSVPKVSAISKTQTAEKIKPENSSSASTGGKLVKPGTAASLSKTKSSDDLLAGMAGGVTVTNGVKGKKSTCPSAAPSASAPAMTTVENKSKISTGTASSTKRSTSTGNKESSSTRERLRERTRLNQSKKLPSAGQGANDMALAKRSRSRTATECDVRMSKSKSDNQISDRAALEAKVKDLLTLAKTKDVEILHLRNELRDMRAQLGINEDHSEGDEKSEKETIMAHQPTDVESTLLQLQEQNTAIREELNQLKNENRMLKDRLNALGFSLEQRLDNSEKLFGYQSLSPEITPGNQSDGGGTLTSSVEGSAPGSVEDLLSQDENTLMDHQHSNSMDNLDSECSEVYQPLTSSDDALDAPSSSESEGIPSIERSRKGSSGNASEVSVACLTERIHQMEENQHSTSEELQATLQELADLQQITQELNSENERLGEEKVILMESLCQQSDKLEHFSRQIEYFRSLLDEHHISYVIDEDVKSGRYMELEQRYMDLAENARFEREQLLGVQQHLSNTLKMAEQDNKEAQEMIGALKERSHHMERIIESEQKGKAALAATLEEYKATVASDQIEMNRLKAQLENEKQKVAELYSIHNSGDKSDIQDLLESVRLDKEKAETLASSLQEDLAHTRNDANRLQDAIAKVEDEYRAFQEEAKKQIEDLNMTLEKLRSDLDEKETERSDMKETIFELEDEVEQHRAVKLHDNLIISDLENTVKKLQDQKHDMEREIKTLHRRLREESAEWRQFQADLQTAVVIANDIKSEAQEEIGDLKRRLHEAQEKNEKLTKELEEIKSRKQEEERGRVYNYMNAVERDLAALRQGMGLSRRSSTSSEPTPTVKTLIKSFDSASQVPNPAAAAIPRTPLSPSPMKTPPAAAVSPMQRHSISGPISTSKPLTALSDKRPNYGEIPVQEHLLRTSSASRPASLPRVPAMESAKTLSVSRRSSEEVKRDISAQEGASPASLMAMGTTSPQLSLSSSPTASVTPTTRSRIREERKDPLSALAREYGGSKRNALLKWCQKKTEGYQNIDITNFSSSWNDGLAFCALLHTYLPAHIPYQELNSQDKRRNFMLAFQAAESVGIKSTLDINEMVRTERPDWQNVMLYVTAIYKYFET
UniProt O15269: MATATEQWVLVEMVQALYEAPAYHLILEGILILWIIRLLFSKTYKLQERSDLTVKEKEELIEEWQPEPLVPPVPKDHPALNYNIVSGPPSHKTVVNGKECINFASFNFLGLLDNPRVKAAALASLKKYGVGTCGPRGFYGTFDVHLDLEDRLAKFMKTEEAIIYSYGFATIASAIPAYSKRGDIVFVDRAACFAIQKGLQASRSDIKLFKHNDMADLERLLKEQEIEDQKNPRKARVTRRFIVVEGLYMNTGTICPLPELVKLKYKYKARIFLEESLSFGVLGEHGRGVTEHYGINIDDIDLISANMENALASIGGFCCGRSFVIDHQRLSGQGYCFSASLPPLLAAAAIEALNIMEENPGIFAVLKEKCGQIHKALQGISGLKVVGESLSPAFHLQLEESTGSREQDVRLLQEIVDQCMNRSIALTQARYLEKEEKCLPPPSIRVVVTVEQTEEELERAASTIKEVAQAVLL
UniProt Q8NEF9: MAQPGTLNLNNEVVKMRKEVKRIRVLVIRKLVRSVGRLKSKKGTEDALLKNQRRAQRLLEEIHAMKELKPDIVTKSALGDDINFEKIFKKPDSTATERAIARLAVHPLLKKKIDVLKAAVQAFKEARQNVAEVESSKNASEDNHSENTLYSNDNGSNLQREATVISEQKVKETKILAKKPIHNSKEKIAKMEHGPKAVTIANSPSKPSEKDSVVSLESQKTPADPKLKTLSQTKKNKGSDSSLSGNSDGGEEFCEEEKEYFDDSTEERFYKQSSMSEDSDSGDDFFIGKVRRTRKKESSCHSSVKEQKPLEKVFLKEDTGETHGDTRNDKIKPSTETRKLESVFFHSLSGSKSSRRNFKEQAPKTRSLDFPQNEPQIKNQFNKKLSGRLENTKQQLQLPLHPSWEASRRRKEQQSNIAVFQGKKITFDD
UniProt Q08170: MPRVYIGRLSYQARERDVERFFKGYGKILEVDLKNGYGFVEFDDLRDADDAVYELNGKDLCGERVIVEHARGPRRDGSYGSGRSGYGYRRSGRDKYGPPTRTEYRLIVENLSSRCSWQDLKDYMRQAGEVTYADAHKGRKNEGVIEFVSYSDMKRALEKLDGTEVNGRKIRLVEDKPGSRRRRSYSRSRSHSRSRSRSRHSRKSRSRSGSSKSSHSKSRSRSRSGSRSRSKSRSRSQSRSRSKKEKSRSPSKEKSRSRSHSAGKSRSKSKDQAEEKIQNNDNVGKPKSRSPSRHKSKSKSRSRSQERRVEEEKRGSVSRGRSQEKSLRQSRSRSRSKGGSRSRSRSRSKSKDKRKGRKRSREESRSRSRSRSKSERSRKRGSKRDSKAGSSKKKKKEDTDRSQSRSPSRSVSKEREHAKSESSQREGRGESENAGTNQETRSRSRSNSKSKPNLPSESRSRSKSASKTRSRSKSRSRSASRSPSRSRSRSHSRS
UniProt O76094: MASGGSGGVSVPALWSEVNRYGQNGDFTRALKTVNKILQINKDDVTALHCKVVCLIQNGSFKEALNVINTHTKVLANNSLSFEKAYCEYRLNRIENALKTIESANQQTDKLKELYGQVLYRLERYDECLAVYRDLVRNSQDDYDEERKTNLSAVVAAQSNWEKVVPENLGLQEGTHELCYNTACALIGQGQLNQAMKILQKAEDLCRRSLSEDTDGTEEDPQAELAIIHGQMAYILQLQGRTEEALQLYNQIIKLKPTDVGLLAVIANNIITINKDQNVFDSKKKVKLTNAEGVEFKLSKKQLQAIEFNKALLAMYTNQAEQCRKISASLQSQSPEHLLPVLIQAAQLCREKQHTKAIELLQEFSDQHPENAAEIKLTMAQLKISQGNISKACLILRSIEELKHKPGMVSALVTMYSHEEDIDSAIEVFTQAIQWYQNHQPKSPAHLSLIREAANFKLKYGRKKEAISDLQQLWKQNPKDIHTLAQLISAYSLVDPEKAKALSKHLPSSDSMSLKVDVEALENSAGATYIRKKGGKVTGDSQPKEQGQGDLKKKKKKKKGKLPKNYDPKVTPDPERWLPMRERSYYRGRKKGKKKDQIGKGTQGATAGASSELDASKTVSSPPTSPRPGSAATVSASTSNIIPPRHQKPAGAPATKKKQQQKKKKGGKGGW
UniProt P51571: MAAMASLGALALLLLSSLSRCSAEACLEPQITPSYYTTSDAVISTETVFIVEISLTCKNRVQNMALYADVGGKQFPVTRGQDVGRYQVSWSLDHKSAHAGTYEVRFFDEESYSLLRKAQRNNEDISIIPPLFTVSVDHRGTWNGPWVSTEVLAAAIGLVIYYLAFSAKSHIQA

compound: Cn1cc(-c2ccc3nnc(C(F)(F)c4ccc5ncccc5c4)n3n2)cn1; experiment: log2 fold change, soluble protein after heating vs DMSO (PISA); higher = thermal stabilisation; K562 cells, 10 uM, 30 min; active = over 0.2 and 3.5 SD of the protein, either way, in both replicates (recomputed)
How it was run: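 Values are thermal stability changes relative to control samples and are taken from duplicates. They are stated as log2 fold changes. Before quantification by TMTpro 16plex LC-MS/MS with equalised channel sums, K562 cells at 2×10^6 cells/mL were treated with 10 μM compound for 30 min, heated in aliquots for 3 min across 48°C-58°C, pooled, extracted in PBS with 0.5% NP-40 at 4°C, and centrifuged at 21,000xg for 90 min to give the soluble supernatant.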

log2 fold change, inactive:
SPAST (UniProt Q9UBP0) -0.022, SPIRE2 (UniProt Q8WWL2) -0.193, SPHK1 isoform 2 (UniProt Q9NYA1) -0.031, SPPL2A (UniProt Q8TCT8) -0.043, SRA1 (UniProt Q9HD15) 0.039, STIM1 (UniProt Q13586) 0.01, SPTBN1 (UniProt Q01082) -0.007, SRSF3 (UniProt P84103) -0.154, SPECC1 (UniProt Q5M775) 0.089, STAG1 (UniProt Q8WVM7) -0.016, SPPL2B (UniProt Q8TCT7) -0.118, SRP54 (UniProt P61011) 0, ST3GAL2 (UniProt Q16842) -0.022, SRSF1 (UniProt Q07955) -0.113, STAT1 (UniProt P42224) -0.1, STAT5B (UniProt P51692) 0.08, ST6GALNAC1 (UniProt Q9NSC7) 0.029, STEAP3 isoform 2 (UniProt Q658P3) 0.11, SPRYD4 (UniProt Q8WW59) -0.021, SRGAP2 (UniProt O75044) -0.009, SRPK2 isoform 2 (UniProt P78362) -0.157, SPART (UniProt Q8N0X7) 0.059, STK24 (UniProt Q9Y6E0) 0.05, STAT3 (UniProt P40763) 0.013, SPECC1L (UniProt Q69YQ0) -0.041, SPTLC1 (UniProt O15269) 0, SRFBP1 (UniProt Q8NEF9) -0.044, STAT5A (UniProt P42229) 0.104, SRSF4 (UniProt Q08170) -0.14, SRP72 (UniProt O76094) -0.052, SRSF7 (UniProt Q16629) -0.126, SSR4 (UniProt P51571) 0.026, SPTBN4 (UniProt Q9H254) 0.03, SPATA5L1 (UniProt Q9BVQ7) -0.009, SPG11 (UniProt Q96JI7) 0.146, STAT6 (UniProt P42226) -0.042, STARD9 (UniProt Q9P2P6) 0.047, SREK1 isoform 2 (UniProt Q8WXA9) -0.11
